No constants are given. Whether binding was seen depends on the method and setting. Binding seen in cells or lysates may run through a third protein. Sequences can lack the tags named with a protein.
Biological target: GFP-Vamp7 deleted of its SNARE motif (GFP-Longin) (UniProt P51809)
Test: co-IP; HeLa cells co-transfected with the inclusion protein and a GFP-SNARE, lysed 24 h later in 50 mM Tris, 150 mM NaCl, 1% Triton X-100, 10 mM EDTA, pH 7.5; GFP-tagged proteins precipitated with anti-GFP monoclonal antibodies; blots with anti-IncA or anti-His

Protein sequences, listed by entry. Tags and fused reporters are not part of them. Lines headed by an entry give the natural chain unless they say otherwise; changes in a name come on top.
UniProt P51809: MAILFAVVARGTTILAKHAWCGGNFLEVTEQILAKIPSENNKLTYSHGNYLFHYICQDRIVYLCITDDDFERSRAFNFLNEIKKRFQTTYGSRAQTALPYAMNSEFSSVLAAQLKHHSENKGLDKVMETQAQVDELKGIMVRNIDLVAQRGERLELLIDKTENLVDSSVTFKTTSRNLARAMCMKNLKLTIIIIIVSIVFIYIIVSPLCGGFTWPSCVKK

B1: C. trachomatis IncA with a carboxyterminal His tag, expressed in HeLa cells (protein, UniProt P0CI27 1-273)
chain: MTTPTLIVTPPSPPAPSYSANRVPQPSLMDKIKKIAAIASLILIGTIGFLALLGHLVGFLIAPQITIVLLALFIISLAGNALYLQKTANLHLYQDLQREVGSLKEINFMLSVLQKEFLHLSKEFATTSKDLSAVSQDFYSCLQGFRDNYKGFESLLDEYKNSTEEMRKLFSQEIIADLKGSVASLREEIRFLTPLAEEVRRLAHNQQSLTVVIEELKTIRDSLRDEIGQLSQLSKTLTSQIALQRKESSDLCSQIRETLSSPRKSASPSTKSS
binding: no binding

— PMC2265411
